Assay [1] concerns the target T1, Myc-His-CSN-5H129A (N. crassa) (UniProt Q7RXX8).
T1 sequence: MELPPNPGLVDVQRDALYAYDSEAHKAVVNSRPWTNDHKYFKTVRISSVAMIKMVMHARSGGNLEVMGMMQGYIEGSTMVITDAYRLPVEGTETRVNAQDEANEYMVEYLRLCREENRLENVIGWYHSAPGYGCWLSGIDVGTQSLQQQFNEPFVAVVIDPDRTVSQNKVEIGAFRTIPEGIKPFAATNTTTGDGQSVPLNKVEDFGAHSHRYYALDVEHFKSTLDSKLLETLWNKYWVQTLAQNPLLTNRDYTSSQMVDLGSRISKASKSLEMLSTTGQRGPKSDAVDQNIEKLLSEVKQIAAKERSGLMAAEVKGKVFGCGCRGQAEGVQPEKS
Kind of assay: two-step affinity purification, silver-stained SDS-PAGE; Myc-His-CSN-5 versions from csn-5^KO strains purified on a nickel column, then immunoprecipitated with c-Myc antibody agarose; protein profile on a silver-stained gel, bands of these samples not analysed by mass spectrometry.

The target in assay [2] is T2, Myc-His-CSN-5D140N (N. crassa) (UniProt Q7RXX8).
T2 sequence: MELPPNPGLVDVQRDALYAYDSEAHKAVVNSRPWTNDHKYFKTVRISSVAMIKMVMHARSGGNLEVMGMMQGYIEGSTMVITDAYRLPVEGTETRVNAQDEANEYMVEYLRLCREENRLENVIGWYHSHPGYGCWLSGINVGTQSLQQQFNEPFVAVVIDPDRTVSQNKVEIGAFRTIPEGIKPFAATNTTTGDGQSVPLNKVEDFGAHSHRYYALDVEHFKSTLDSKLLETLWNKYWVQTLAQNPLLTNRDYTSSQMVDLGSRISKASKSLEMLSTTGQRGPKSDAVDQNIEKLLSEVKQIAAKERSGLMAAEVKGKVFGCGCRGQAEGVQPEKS
The description is as above.

Assay [3] concerns the target T3, Flag-tagged CSN-5 (N. crassa) (UniProt Q7RXX8).
T3 sequence: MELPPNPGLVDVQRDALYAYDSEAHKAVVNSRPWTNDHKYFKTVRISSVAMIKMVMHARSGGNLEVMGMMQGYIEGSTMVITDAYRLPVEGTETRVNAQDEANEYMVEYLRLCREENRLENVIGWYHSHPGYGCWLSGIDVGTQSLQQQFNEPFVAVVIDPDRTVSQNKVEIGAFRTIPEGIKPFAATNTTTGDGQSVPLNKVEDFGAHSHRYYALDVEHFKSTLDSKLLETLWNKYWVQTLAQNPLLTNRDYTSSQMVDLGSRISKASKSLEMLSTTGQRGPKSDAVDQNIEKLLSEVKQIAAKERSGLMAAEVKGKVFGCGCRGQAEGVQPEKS
Put plainly: co-IP; Flag antibody immunoprecipitation from csn-5^KO strains co-expressing Myc-CSN-6 and Flag-CSN-5 versions; western blot with c-Myc antibody. In general terms: In western blotting, separated proteins are transferred to a membrane and probed.

Assay [4] deals with T4, Flag-CSN-5H129A (N. crassa) (UniProt Q7RXX8).
T4 sequence: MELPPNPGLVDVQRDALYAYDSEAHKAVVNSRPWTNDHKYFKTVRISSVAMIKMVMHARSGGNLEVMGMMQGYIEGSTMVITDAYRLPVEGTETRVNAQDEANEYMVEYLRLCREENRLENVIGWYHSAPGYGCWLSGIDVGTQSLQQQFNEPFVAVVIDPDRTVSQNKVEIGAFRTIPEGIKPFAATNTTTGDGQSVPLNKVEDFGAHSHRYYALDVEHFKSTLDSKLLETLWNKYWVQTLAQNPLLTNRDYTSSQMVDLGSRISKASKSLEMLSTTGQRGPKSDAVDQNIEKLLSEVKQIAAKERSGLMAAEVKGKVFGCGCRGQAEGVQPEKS
The description is as above.

Assay [5] deals with T5, Flag-CSN-5H127A (N. crassa) (UniProt Q7RXX8).
T5 sequence: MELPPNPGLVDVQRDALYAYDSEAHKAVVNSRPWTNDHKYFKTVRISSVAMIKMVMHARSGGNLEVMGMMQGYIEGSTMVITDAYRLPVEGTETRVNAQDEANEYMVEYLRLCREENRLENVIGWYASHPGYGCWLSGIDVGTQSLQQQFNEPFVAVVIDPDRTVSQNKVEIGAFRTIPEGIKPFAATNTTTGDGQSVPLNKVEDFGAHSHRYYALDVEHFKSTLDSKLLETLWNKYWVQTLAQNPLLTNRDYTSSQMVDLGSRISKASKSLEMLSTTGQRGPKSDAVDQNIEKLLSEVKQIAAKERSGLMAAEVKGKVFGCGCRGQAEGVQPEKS
Described as above.

The target of assay [6] is T6, Flag-CSN-5D140N (N. crassa) (UniProt Q7RXX8).
T6 sequence: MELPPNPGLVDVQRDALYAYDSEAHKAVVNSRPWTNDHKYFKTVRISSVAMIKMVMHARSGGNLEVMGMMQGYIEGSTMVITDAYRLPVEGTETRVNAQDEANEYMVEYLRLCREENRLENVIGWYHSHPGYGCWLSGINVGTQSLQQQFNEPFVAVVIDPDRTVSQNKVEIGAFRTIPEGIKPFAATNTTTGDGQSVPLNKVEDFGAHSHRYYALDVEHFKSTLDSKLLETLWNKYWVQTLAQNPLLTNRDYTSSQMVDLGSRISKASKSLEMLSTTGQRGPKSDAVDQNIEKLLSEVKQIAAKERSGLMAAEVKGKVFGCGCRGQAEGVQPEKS
The assay is described as above.

Results on 6 molecules are retold here after publication PMC3349749.

Results are given in words; binding and its absence hold for the method and conditions named. For some assays here: In cells and extracts the contact can be indirect. Some binding calls cover weakened binding; strength is not graded here. Tags and fused reporters may be left off the sequences shown.

B1: CSN-4 (protein, UniProt Q7S0P8 1-440)
chain: MVSSEVRDLLAQVPNWSQADRPAAFRTIITTITSSPDPSHFAADLKAVTDAIFLESLGVVATRALVIDLIDALKSLASGGPSADSINSTTSSIWLDVGKAIQQHIQSNPTLATSLVDQTATIYEELLAAAHESQNSFTDAAKTLAAIPLDSSQRRVTDKYKADLWIRIIRNYLEDDDATSAETYLNKLKNIIHNVADDNPVLNLHFKLSAARIQDSNRQFLAASQSYYEISLSPAIAEEERLHTLSMAIKCAVLAPAGPPRSRVLARLYKDERSASLEEFGILEKMFLDRLLARAEVEKFAQGLAPHQLATTSDGSTVLAKAMVEHNLLAVSRLYRNIGFDALGSWLGLDSGNKAEEITARMIEQGRLAGSIDQIDRIIYFESGLEASGEKGSGRAEVPVGKEMRRQDGMVQALAEDLERITDDLLVEFPQLVPAGVPGN
For B1, the binding result in assay [1] and in assay [2] was “binds” each time.

B2: CSN-3 (protein, UniProt Q7S7G7 1-497)
chain: MDARLTVLTAFPPAAGIDNEEYYQNSQQHAKRVRELVRDNAQWIRESADDILKHVNPAVYSLSYLMILEFLLQSPGWTSQQAHESLASYMAQFFLQFDARQIRCKGSTWSDVLKEAYSERGLFPASVAVELVTAALLRLDPSGSIITSHHCNLVELAYNTGNVGALLPLIEKPIIYMPAKGMSTAQPLCDMSLPPPAYINPDSQLTDALTSAAVLQYDFLCGLCFIERRMWQQAFDAFERCVTYPTRDGGCSKIMTEAYNKWILVGLLLTGKPPTLPETTSQAAKKIFATQGKPYKLFAQAFKSETAGDLVREFEVINSELLPNEGNVELAKLVLAHYQRWQIINLRNIYTNISLEKIQERTQSAETGAPLPTVEAVDQLVQSMIADGSLQGAIERPKDGSPAYLTFLSSPAQGMSEVEFSAQVNKVMQGIKALEPIIEATNKRLASNREYISHTVKRQFDAAREHKLGLQSAGGGFEESSFHIEEEEDLMSGLPAH
As for B2, the binding entry in assay [1] and in assay [2] was “binds” each time.

B3: Myc-tagged CSN-6 (protein, UniProt Q7S8C8 1-497)
chain: MAAATVNPLMSTLKSDSSLQVALHPLPILEISDYITRSYLRGYKGAIVGALIGQQNGRQITIEHSFSVKTEHTGQNYKVDSEWFTARLDQMKAVHKDRALDFVGWYTLVPKSGPTDAHLPIHSYFYSQNESAVLLGFHIHEILNPVAGDPLPLTIYESNLEIVDGTEASTVEVEGEDREMKDVTAEPSRSIKFRELPYTTETGEAEMIALEFVREGGSANVTTTATNITATEDEGSDKPLMKKVVDTNKGSKRRAVSSDDAAAEAPTTSSAAKGTATDKNRDANLTKAELDYMSALQAKYNAVQMMKKRLDTVISYLQRLPPDYLSSGDASSQQQQQQQQQQQTEGLDQPQYTVPSNKILRQIQALVTNVQLVMSNSTSGQGQGQGERDTDLGALEKELLKETNDVKLVELIADLMSSVKDMKEVGKKFHVVETAKNSKRREQASHGGGERFNPHHPYPGGGGGSSMMREHAGLVGEGSASGSGGSGPAGDLARFDH
Take B3: the binding entry in assay [3], in assay [4], in assay [5] and in assay [6] was “binds” in each case.

B4: CSN-6 (endogenous) (protein, UniProt Q7S8C8 1-497)
chain: MAAATVNPLMSTLKSDSSLQVALHPLPILEISDYITRSYLRGYKGAIVGALIGQQNGRQITIEHSFSVKTEHTGQNYKVDSEWFTARLDQMKAVHKDRALDFVGWYTLVPKSGPTDAHLPIHSYFYSQNESAVLLGFHIHEILNPVAGDPLPLTIYESNLEIVDGTEASTVEVEGEDREMKDVTAEPSRSIKFRELPYTTETGEAEMIALEFVREGGSANVTTTATNITATEDEGSDKPLMKKVVDTNKGSKRRAVSSDDAAAEAPTTSSAAKGTATDKNRDANLTKAELDYMSALQAKYNAVQMMKKRLDTVISYLQRLPPDYLSSGDASSQQQQQQQQQQQTEGLDQPQYTVPSNKILRQIQALVTNVQLVMSNSTSGQGQGQGERDTDLGALEKELLKETNDVKLVELIADLMSSVKDMKEVGKKFHVVETAKNSKRREQASHGGGERFNPHHPYPGGGGGSSMMREHAGLVGEGSASGSGGSGPAGDLARFDH
As to B4, the binding result in assay [1] and in assay [2] was “binds” throughout.

B5: CSN-2 (protein, UniProt Q7SI58 1-490)
chain: MSDDDFMQDSDQEYDFEYEDDEEEDTGDVDIENKYYNAKQTKTSDPEEALQEFLSIPPLEQEKGDWGFKALKQAIKLEFKLKRYQEATEHYEELLTYVKSAVTRNYSEKSIDNMLNYIEKGYDDPKAVQCIEKFYSLTLQCFQSTNNERLWLKTNIKLARLLLDRKDYHAVARKLRELHNACRKSDGTDDPSKGTYSLEIYALEIQMYSETRNNNQLKVLYQKALKVRSAVPHPKIQGVIRECGGKMHMSEENWKEAQSDFFEAFRNYDEAGDLRRIQVLKYLLLTTMLMKSDINPFDSQEMKPYRNDPRIFAMTELVDAYQRDDIYRYEDVLQKNTDLLADPFIAENIDEVTRNMRTKGVVKLIAPYTRMRISWLAERLRITEPEVMDILSFLIVDGRVKGRIDEHKGVLELESREDADHVQAITVLSEAVGNLFNAVFKSTDGFQPGQGDFMNSMADQSADIGSLDDTMRSMGSGKRGRRVGLTQRAY
For B5, the binding entry in assay [1] and in assay [2] was “binds” throughout.

B6: CSN-1 (protein, UniProt Q7RXQ1 1-425)
chain: MDDRKLAFFTAIEDQGGVIVKGRTRFERLFHIGRSSVPLCVDALKAAVQEAKAGSDILRYQMAVNSLFQAAPNEPEALLDKAWMESKEKENRDTTAHLQAELQGYKNNLIKESIRMGNEDLGKHFEAIGDVEAAMDSFWKMRTEVSSTEQLVDLGKLLVRVAIERRDWKSIGNHLKPLNSVNDSDPKAKALKTYSKIANGIAALGQERYKEAAFCFVEASSGVPPEIYNQIASPNDVAIYGGLLALATMDRHELQANLLDNDSFREFLQREPHIRRAITQFVNGRYAACIEILESYRPDYLLDIYLQKHVPKLYADIRTKSIVQYLKPFSCVRLDTMQKAFNGPGPSIEDELFTMIKDGKLNARIDAINKSKALQTLENYEKQALDRIRRMNIMAADLEVKGSRKPGGMNDIPFSMTTDDTVSLA
Consider B6, for which the binding result in assay [1] and in assay [2] was “binds” each time.
